Among the data in patent US20240083999A1 are binding values, retold here.

The chains behind the UniProt entries cited, without tags or fusion partners. Where a name states a change or a piece, a line headed by the entry shows the natural chain unless it says otherwise.
UniProt P05231: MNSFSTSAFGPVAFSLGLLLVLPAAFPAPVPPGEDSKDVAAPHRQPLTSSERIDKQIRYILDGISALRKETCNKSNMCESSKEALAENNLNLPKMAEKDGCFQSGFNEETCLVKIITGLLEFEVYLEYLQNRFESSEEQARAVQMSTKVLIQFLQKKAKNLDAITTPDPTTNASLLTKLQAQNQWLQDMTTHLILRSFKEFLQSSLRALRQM

Residue numbers refer to the chain shown, from its start. These are yes or no findings as the source states them, for the method shown. Some results given as binding are weak or reduced against the parent protein; the word gives no strength.

The target of the experiment is human interleukin 6 (hIL-6) (human) (UniProt P05231). As to the kind of experiment: re-screening of the VHH-display library for hIL-6 binding.

B1: XAX-C9 (VHH)
VHH: SGGGLVQPGGSLRLSCAASGFTLDYYAIGWFRQAPGKEREGVSCLSSSDRSTYYVDSVKGRFTISRDDDKNTAYLQMNSLKPEDTATYYCAAGTWDLKWGYNISACVGSYEYDYWGQGTQVTVSS
Take B1: the binding result is recorded as “binds”.

B2: XAX-H9 (VHH)
VHH: B1 VHH with S1T
As to B2, the binding result is on record as “binds”.

B3: JYK-A8 (VHH)
VHH: B1 VHH with T52A, Y54A, V55I, D68G, D69A, A73V, T87V, G108R
On to B3, for which the binding result is recorded as “binds”.

B4: XAX-H12 (VHH)
VHH: B1 VHH
Turning to B4, the binding result was “binds”.

B5: hIL-6-binding VHH JYK-A1 (Trx/JYK-A1/E) (VHH, not shown: large carriers)
VHH: QLQLAETGGGLVQPGGSLRLSCAASGFTLDYYAVGWFRQAPGKEREGISCISSSDLKTYYADSVKGRFTISRDYAKSTVSLQMNSLKPEDTGVYYCAAGTWDLKFGYNISACVGSYEYDYWDQGTQVTVSS
For the molecule B5, the binding result is listed as “binds”.

B6: hIL-6-binding VHH JYK-H9 (Trx/JYK-H9/E) (VHH, not shown: large carriers)
VHH: QLQLVETGGGLVQPGGSLRLSCAASGFTLDYYAIGWFRQAPGKEREGVSCLSSSDRSTYYVDSVKGRFTISRDDDKNTAYLQMNSLKPEDTATYYCAAGTWDLKWGYNISACVGSYEYDYWGQGTQVTVSS
As to B6, the binding entry is listed as “binds”.

B7: XAX-B7 (VHH)
VHH: TGGGLVQPGGSLRLSCAASGFTLDYYGIGWFRQAPGKEREGVSCMSSSDLKTYYADSVKGRFTISRDSAKNTVYLQMNSLKPEDTGVYYCAAGTWDLKFGYNITTCVRSSEYDYRGQGTQVTVSS
For B7, the binding entry is reported as “binds”.

B8: XAX-H5 (VHH)
VHH: B7 VHH with L23S
B8: the binding result is “binds”.

B9: XAX-C2 (VHH)
VHH: TGGGGLVQPGGSLRLSCAASGFTLDYYGIGWFRQAPGKEREGVSCISSSDWSTYYADSVKGRFTISRDNAKNTVYLQMNSLKPEDTAVYYCAAGTWDLKFGYNRSNCVRSAEYDYWGQGTQVTVSS
As to B9, the binding result was “binds”.

B10: JYK-G1 (VHH)
VHH: SGGGLVQPGGSLRLSCAASGFTLDYYAVGWFRQAPGKEREGISCISSSDLKTYYTDSVKGRFTISRDNANNAVSLQMNSLKPEDTGVYYCAAGTWDLKFGYNISACVGSYEYDYWGQGTQVTVSS
For B10, the binding entry is “binds”.

B11: XAX-G8 (VHH)
VHH: B10 VHH with T55A, N70K, N71S, A72T
For B11, the binding entry was “binds”.

B12: XAX-E6 (VHH)
VHH: B10 VHH with S1T
With B12, the binding entry is given as “binds”.

B13: JYK-G10 (VHH)
VHH: B10 VHH with T22A, T55A, N70K, N71S, A72T
Take B13: the binding entry is “binds”.

B14: JYK-F6 (VHH)
VHH: B10 VHH with S1T, T55A, N68Y, N70K, N71S, A72T
Take B14: the binding entry is on record as “binds”.
